The results in this text go back to publication PMC9410891.

The chains behind the UniProt entries cited, without tags or fusion partners.
UniProt Q4JK59: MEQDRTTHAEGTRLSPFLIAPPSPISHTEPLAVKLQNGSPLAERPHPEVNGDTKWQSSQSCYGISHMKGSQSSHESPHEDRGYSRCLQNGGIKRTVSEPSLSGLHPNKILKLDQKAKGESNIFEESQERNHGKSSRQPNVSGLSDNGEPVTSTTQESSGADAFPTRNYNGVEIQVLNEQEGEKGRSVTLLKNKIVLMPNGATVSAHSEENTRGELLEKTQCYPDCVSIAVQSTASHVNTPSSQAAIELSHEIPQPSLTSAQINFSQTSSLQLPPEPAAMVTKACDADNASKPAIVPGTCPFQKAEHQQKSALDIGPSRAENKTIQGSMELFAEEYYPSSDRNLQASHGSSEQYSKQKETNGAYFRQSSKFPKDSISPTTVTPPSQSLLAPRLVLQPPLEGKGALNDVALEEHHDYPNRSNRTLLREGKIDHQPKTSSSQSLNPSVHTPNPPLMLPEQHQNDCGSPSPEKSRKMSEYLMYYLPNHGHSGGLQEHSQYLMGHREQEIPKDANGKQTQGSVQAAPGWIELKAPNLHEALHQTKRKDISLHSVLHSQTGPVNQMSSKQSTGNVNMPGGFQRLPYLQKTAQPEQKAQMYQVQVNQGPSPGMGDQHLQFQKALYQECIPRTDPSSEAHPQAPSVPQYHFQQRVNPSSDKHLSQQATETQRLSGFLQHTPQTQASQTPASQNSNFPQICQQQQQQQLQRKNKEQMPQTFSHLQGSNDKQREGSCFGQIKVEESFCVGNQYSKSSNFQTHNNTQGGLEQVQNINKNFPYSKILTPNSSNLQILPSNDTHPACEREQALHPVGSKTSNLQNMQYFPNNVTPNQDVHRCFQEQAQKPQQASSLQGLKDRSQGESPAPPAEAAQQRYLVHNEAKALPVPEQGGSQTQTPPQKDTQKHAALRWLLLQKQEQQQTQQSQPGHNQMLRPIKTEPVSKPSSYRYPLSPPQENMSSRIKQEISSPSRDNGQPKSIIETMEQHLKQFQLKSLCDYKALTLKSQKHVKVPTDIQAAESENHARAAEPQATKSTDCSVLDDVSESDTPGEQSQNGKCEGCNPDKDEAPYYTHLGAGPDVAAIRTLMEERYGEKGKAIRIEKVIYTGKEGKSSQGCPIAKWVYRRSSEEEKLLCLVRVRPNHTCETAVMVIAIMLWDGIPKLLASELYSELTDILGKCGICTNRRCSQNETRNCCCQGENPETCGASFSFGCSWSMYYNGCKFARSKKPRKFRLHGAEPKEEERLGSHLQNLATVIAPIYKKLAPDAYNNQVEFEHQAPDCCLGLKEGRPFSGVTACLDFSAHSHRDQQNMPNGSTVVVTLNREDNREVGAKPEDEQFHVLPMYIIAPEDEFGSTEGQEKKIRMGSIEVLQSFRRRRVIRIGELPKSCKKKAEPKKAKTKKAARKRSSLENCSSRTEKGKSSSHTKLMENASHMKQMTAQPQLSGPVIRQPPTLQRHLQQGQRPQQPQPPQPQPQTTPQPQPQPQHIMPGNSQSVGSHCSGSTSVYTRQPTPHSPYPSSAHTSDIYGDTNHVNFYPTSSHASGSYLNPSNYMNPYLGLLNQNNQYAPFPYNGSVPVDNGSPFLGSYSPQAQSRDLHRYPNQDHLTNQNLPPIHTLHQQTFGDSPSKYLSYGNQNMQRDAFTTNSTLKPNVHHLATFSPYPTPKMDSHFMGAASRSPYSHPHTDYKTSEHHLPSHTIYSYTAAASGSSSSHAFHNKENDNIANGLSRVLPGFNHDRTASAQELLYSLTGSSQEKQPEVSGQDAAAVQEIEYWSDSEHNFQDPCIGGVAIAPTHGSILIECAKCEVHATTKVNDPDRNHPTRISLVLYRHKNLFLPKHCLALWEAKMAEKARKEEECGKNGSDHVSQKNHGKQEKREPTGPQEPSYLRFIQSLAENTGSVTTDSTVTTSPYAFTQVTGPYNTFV
UniProt Q61188: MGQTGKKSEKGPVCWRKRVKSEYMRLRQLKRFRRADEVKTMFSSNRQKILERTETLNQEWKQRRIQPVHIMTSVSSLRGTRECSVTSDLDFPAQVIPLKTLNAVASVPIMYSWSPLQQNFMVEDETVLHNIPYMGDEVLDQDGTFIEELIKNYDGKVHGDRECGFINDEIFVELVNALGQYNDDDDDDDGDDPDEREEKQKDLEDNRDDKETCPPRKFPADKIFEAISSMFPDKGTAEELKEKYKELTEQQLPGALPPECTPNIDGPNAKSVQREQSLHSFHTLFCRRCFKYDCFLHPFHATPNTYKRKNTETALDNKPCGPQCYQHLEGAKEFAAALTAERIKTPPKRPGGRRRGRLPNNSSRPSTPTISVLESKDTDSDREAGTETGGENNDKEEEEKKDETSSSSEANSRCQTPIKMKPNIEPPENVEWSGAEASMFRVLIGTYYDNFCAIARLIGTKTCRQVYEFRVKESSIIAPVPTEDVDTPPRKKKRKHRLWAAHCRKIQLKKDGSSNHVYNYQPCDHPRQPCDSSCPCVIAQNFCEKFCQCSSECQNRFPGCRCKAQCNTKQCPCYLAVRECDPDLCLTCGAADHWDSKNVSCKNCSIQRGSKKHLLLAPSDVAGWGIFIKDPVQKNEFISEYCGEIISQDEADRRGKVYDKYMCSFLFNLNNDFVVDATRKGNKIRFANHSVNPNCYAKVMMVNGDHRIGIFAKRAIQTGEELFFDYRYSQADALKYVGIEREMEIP

No constants are given. Whether binding was seen depends on the method and setting. Binding seen in cells or lysates may run through a third protein. Some entries that bind do so weakly or less than the wild type.

The experiment deals with TET2 (mouse (endogenous in CD19+ B cells)) (UniProt Q4JK59). As to the kind of experiment: co-IP; extracts of CD19+ B cells from control (Hdac7+/-) and HDAC7-deficient (Hdac7fl/-) mice; lysis buffer 50 mM Tris-HCl pH 7.5, 1 mM EDTA, 150 mM NaCl, 1% Triton-X-100, with Benzonase; precipitated overnight at 4°C with anti-TET2 (ab124297), rabbit IgG as negative control; blotted.

Take EZH2 (from UniProt Q61188 1-746): the binding entry was “binds”.
